The numbers were not newly measured in patent publication US20190000850A1, “COMBINATION CANCER THERAPY” (The Regents of the University of California, priority 2015, published 2019), which cites them from elsewhere.

Each structure is given as a SMILES string.

The data set addresses T1, Chk1 (Homo sapiens, UniProt O14757).
T1 sequence (O14757 1-476): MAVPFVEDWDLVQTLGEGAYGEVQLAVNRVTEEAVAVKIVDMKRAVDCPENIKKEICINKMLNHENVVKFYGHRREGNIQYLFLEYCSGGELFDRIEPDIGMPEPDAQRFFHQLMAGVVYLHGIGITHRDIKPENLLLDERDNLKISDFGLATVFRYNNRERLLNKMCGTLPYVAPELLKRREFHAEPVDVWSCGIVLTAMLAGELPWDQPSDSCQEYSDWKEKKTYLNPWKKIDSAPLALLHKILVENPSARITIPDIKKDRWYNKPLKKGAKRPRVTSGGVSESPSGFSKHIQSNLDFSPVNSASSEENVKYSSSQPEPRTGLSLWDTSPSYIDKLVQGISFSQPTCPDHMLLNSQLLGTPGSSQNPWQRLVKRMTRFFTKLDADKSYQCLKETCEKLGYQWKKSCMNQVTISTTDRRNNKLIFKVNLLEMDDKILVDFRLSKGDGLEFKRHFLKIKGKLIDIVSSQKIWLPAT
To be noted: read-out: IC50 against primary target (Chk1); cited from earlier work.

On to `CNCCCn1c2ccc(O)cc2c2c3c(c(-c4c(Cl)cccc4Cl)cc21)C(=O)NC3=O` [PD-321852], for which the IC50 is 5 nM.
